Data published in article doi:10.1101/133777.

Protein sequences, listed by entry. Tags and fused reporters are not part of them.
UniProt O95747: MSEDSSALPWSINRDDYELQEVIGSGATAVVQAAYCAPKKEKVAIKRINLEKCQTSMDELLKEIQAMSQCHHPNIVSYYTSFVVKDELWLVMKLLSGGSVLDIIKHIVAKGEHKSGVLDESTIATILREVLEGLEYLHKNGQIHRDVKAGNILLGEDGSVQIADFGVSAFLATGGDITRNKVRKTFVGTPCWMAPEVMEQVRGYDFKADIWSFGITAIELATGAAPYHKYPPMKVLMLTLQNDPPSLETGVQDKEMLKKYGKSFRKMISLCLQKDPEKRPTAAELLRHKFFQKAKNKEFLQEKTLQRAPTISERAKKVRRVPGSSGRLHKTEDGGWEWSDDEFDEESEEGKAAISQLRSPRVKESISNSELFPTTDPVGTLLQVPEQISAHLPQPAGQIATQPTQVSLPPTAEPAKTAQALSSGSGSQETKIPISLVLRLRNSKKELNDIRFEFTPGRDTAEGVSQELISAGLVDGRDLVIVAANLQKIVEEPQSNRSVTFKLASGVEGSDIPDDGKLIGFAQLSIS
UniProt Q9H4A3: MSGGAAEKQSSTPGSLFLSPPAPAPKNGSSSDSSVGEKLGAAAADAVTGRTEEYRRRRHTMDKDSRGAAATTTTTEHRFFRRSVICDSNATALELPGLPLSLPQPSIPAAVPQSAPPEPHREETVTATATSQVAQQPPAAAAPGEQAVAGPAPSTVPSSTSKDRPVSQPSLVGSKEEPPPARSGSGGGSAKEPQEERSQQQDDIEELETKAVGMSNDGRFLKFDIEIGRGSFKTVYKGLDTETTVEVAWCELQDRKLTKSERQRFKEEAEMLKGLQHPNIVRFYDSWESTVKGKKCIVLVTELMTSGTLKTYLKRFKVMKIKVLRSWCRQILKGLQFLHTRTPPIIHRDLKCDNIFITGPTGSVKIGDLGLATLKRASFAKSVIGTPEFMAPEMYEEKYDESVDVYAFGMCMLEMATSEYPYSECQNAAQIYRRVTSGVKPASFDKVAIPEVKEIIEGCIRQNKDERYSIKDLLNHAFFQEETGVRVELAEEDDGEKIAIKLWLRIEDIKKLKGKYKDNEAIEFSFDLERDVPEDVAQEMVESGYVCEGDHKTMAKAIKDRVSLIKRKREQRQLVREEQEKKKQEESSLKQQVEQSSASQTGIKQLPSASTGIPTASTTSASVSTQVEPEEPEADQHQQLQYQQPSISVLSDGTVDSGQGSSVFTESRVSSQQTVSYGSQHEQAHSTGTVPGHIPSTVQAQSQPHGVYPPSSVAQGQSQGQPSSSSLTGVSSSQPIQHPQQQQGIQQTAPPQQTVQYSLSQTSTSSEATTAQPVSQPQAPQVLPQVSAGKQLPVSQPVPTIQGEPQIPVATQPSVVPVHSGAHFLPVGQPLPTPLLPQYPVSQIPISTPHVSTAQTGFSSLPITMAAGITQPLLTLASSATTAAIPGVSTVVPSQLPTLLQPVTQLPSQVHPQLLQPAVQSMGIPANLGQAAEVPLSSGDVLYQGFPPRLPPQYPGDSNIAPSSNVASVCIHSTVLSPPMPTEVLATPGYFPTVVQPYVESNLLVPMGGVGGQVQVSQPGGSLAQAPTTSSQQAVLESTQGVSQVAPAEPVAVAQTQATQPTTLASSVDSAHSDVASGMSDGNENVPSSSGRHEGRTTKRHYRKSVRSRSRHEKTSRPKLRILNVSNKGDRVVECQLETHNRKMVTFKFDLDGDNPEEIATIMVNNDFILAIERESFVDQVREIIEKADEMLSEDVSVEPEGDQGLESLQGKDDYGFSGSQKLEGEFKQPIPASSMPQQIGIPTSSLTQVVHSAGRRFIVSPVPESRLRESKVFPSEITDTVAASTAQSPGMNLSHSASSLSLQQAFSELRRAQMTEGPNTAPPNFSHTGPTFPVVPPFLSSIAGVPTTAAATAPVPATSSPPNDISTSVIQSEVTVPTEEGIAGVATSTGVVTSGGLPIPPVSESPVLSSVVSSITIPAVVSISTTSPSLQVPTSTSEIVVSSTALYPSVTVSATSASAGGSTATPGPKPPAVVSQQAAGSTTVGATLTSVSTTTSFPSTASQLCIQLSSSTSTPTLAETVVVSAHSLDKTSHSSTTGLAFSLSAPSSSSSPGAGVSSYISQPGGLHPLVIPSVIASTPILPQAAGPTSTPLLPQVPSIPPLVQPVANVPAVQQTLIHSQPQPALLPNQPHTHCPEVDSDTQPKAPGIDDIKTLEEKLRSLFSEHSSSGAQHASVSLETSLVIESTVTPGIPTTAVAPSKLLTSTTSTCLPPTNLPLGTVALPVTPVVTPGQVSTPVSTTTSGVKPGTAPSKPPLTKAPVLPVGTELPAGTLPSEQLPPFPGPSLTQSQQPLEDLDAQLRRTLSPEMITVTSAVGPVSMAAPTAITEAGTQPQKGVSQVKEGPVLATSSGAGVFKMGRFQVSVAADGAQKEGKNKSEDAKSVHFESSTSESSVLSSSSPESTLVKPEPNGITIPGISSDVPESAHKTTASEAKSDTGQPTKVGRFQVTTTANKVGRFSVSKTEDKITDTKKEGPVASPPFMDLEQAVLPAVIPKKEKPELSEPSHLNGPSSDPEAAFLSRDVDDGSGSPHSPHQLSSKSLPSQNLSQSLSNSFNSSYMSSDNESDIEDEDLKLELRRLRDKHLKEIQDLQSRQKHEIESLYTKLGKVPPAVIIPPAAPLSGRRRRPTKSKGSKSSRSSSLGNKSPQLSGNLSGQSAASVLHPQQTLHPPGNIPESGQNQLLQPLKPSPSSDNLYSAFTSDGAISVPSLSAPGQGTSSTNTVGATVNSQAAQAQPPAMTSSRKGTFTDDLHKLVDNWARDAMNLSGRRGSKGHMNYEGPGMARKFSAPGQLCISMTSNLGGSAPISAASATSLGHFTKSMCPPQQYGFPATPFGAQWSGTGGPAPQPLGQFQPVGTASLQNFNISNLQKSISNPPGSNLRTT

Target: T1, His6-3xFLAG-FBXL5-ΔFbox (UniProt Q9UKA1)
T1 sequence: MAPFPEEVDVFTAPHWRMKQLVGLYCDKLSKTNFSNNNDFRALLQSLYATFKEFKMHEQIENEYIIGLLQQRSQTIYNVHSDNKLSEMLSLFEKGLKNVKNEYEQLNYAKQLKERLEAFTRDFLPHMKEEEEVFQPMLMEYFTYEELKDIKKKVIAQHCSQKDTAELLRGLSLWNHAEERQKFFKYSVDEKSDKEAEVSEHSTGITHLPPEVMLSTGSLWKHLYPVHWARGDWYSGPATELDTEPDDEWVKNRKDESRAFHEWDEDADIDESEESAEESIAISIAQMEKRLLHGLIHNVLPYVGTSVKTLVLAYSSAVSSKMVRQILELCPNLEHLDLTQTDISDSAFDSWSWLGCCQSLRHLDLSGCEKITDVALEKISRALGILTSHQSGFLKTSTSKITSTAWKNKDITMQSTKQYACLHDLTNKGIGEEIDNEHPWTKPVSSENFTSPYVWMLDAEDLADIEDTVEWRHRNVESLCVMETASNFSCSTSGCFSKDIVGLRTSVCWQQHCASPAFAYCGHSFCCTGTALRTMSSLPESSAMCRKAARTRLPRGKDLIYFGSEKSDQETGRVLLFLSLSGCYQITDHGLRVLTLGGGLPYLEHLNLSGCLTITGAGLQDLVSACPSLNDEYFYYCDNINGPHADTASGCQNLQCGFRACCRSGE
Assay: affinity purification with mass spectrometry

| Substance | binding |
| --- | --- |
| Oxidative Stress-Responsive 1 protein (OSR1), endogenous (from UniProt O95747 1-527) | binds |
| WNK1, endogenous (from UniProt Q9H4A3 1-2382) | binds |

No constants are given. Whether binding was seen depends on the method and setting. Binding seen in cells or lysates may run through a third protein. Here binding means that the protein was enriched with, or labelled near, the bait; the list need not be complete. Where a sequence is shown, tags or fusion partners need not be part of it.
